In article PMC8413129:
These are yes or no findings as the source states them, for the method shown. In cells and extracts the contact can be indirect. Some binding calls cover weakened binding; strength is not graded here.

B1: Zinc Finger DHHC-Type Containing 1 (ZDHHC1), ectopic (enzyme, UniProt Q8WTX9 1-485)
chain: MYKMNICNKPSNKTAPEKSVWTAPAQPSGPSPELQGQRSRRNGWSWPPHPLQIVAWLLYLFFAVIGFGILVPLLPHHWVPAGYACMGAIFAGHLVVHLTAVSIDPADANVRDKSYAGPLPIFNRSQHAHVIEDLHCNLCNVDVSARSKHCSACNKCVCGFDHHCKWLNNCVGERNYRLFLHSVASALLGVLLLVLVATYVFVEFFVNPMRLRTNRHFEVLKNHTDVWFVFLPAAPVETQAPAILALAALLILLGLLSTALLGHLLCFHIYLMWHKLTTYEYIVQHRPPQEAKGVHRELESCPPKMRPIQEMEFYMRTFRHMRPEPPGQAGPAAVNAKHSRPASPDPTPGRRDCAGPPVQVEWDRKKPLPWRSPLLLLAMWGPQAPPCLCRKRGRGACIKCERLRPRIRRRGLGPPAAAPARRRIPRTPALCTPLALPAPTTRRRQSPWTRFQWRRRAWAAPLWPPRGAGADSPRWRGRRVRPPFS
B2: Zinc Finger DHHC-Type Containing 1 (ZDHHC1), endogenous in HCT116 cells (enzyme, UniProt Q8WTX9 1-485)
chain: B1 chain

How the values were obtained:
[1] = target: p53 protein, endogenous in MCF7 cells (human (endogenous in MCF7)) (UniProt P04637); assay: co-IP; cells lysed in RIPA buffer with sonication; lysate pre-cleared with A-sepharose magnetic beads, immunoprecipitating antibody added, immune complex separated with A-sepharose magnetic beads, Western blot; MCF7 cells with ectopic ZDHHC1 and HCT116 cells (endogenous proteins)
[2] = target: p53 protein, endogenous in HCT116 cells (human (endogenous in HCT116)) (UniProt P04637); assay: as above

Binder	binding [1]	binding [2]
B1	binds	–
B2	–	binds
